{"source": "patent US10059723B2", "about": "(BIOMARIN PHARMACEUTICAL INC., priority 2011, dated 2018)", "test_system": "C57BL/6J male mice", "assay": "Long term memory for object recognition", "assay_type": "in vivo", "details": "s.c. 3, 10, 30 mg/kg", "description": "C57BL/6J male mice were handled 1-2 min for 5 days and were habituated to the experimental apparatus 5 min a day for 4 consecutive days in the absence of objects. […] 24-h later mice were tested for memory retention (5 min) using the object recognition memory task (ORM), in which a familiar object was replaced with a novel one. All training and testing trials were videotaped and analyzed by individuals blind to the treatment condition and the genotype of subjects. A mouse was scored as exploring an object when its head was oriented toward the object within a distance of 1 cm or when the nose was touching the object. The relative exploration time was recorded and expressed by a discrimination index [DI=(tnovel−tfamiliar)/(tnovel+tfamiliar)×100].", "data": [{"smiles": "Cc1ccc(C(=O)NCCCCCC(=O)Nc2ccccc2N)cc1", "note": "[RGFP 109]", "values": [{"measurement": "dose dependence of the effect on long-term memory", "value": "Dose dependent effects"}]}]}
